Data from paper PMC11714211.
No constants are given. Whether binding was seen depends on the method and setting. In cells and extracts the contact can be indirect. Some binding calls cover weakened binding; strength is not graded here.

Protein sequences, listed by entry. Tags and fused reporters are not part of them. Residues count along the entry.
UniProt Q9NZQ7, residues 19-290: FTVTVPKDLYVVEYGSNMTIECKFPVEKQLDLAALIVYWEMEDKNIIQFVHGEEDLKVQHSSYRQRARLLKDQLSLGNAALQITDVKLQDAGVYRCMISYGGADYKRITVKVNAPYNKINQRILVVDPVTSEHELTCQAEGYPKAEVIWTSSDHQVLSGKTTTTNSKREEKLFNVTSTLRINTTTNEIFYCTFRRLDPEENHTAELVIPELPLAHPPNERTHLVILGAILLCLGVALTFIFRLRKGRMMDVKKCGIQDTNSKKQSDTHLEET
UniProt O43791: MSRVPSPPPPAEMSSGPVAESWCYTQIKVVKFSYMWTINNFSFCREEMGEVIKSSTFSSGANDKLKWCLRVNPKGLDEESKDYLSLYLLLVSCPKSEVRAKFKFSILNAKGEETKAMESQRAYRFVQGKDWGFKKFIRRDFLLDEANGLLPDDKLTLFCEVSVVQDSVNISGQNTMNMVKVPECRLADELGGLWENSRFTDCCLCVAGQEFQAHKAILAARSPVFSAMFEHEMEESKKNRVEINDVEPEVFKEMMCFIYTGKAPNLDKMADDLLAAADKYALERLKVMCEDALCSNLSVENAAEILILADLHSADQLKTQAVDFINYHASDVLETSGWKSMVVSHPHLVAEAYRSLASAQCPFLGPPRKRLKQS

Target: programmed cell death-ligand 1 (PD-L1) (UniProt Q9NZQ7)
Assay: co-IP; 293T cells transfected with PD-L1 plasmid and SPOP plasmid; cells lysed with IP cell lysis buffer with 1% protease inhibitor; lysate incubated with anti-FLAG beads overnight at 4°C, washed five times, immunoblot

## E3 ubiquitin ligase speckle-type zinc finger structural protein (SPOP) (from UniProt O43791 1-374) (enzyme)
  binding: binds
